Values from PubChem BioAssay AID504804 (Drosophila RNAi Screening Center, 2011).
In all, the deposit lists about 19,000 reagents; this is an unselected part of those that have a named target and a result. In the full data, 47 (0.25%) got an active call. 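Signals are raw, not normalised; exact z-scores behind calls not deposited; actives needed confirmation, so some wells reaching 2 SD are inactive.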 Reagent sequences are not shown.

Purpose: 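dsRNAs that improve Kc cell survival under doxorubicin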 (primary screen)
System: Drosophila Kc cells
Knock-down reagent: long dsRNA against Drosophila genes, 0.5 µg dsRNA per well
Time to read-out: 96 h (48 h knock-down, then 48 h drug)
Challenge: doxorubicin 5 µg/ml for 48 h, added 48 h after dsRNA
Detection: 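Viability measured as cellular ATP by luminescence after 48 h knock-down then 48 h doxorubicin at 5 µg/ml; unnormalised plate counts for each replicate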
Scale: raw ATP luminescence: higher = more viable cells, protection from doxorubicin
Hit rule: 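Active when both duplicate wells lie at least 2 SD above the plate mean and protection is confirmed by rescreening and independent dsRNAs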

Against ECSIT [DRSC12348] the deposit lists raw ATP luminescence, replicate 1 = 54483; raw ATP luminescence, replicate 2 = 56547; inactive. After knock-down of CG14380 [DRSC14840], the record shows raw ATP luminescence, replicate 1 = 79130; raw ATP luminescence, replicate 2 = 60830; inactive. Against GCS2alpha (Glucosidase 2 alpha subunit) [DRSC21036], the values are raw ATP luminescence, replicate 1 = 3.08e5; raw ATP luminescence, replicate 2 = 2.47e5; inactive. After knock-down of CG4440 [DRSC02747], the screen gave raw ATP luminescence, replicate 1 = 45087; raw ATP luminescence, replicate 2 = 52120; inactive.

Single entries from the list:
GCS2alpha (Glucosidase 2 alpha subunit) [DRSC21036], raw ATP luminescence, replicate 2 → 2.47e5
ECSIT [DRSC12348], raw ATP luminescence, replicate 1 = 54483

The results go on:
Silencing of AhcyL2 (Adenosylhomocysteinase like 2) [DRSC14107] gave: raw ATP luminescence, replicate 1 = 77330; raw ATP luminescence, replicate 2 = 58570; inactive. vret (vreteno) [DRSC15640] scored raw ATP luminescence, replicate 1 = 56757; raw ATP luminescence, replicate 2 = 57420; inactive. Depletion of CG9717 [DRSC16543] gave: raw ATP luminescence, replicate 1 = 54970; raw ATP luminescence, replicate 2 = 37840; inactive. With knock-down of CG7840 [DRSC03075] the results were raw ATP luminescence, replicate 1 = 1.06e5; raw ATP luminescence, replicate 2 = 65403; inactive. ND-49 (NADH dehydrogenase (ubiquinone) 49 kDa subunit) [DRSC17151] showed raw ATP luminescence, replicate 1 = 36660; raw ATP luminescence, replicate 2 = 30490; inactive. For AOX2 (Aldehyde oxidase 2) [DRSC15338], the entry reads raw ATP luminescence, replicate 1 = 77660; raw ATP luminescence, replicate 2 = 59820; inactive.

Depletion of spn-A (spindle A) [DRSC16812] gave: raw ATP luminescence, replicate 1 = 59720; raw ATP luminescence, replicate 2 = 62360; inactive. For CG13676 [DRSC10035], the entry reads raw ATP luminescence, replicate 1 = 59667; raw ATP luminescence, replicate 2 = 66963; inactive.
